In patent US20190106509A1 (PROTHIX B V, published 2019):
Results are given in words; binding and its absence hold for the method and conditions named. Some binding calls cover weakened binding; strength is not graded here.

Chains of the proteins cited; added tags and fusions are not shown. Residues count along the entry.
UniProt P03951, residues 19-625: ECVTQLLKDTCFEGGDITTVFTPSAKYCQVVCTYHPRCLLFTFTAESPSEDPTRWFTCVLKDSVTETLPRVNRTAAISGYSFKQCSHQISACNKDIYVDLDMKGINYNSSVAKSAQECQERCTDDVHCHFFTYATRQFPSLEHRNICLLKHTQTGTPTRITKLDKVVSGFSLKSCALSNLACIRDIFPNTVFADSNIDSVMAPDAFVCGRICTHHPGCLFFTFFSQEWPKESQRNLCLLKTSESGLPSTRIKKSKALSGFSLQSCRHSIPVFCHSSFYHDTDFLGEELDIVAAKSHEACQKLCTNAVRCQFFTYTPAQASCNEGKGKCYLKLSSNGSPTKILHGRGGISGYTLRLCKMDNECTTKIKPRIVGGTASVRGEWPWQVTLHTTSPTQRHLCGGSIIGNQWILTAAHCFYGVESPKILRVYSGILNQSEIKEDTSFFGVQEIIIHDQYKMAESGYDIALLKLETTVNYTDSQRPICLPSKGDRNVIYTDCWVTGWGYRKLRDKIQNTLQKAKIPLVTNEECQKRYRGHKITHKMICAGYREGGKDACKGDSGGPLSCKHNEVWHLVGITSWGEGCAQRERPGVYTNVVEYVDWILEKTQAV

Biological target: activated factor XI (FXIa) (UniProt P03951)
Test: inferred from inhibition of FXIa chromogenic activity (S2366)

B1: mouse mAb anti-FXI 34.2 (antibody, V domains shown)
VH: QVQLQQPGSELVRPGASVKLSCKASGYTFTRYWMHWVKQRHGQGLEWIGNIYPDSDSTNYDEKFRTKATLTADTSSSTAYMHLSSLTSEDSAVYYCTRMGFYAMDYWGQGTSVTVSS
VL: NIVMTQSPKSMSMSVGERVTLSCKASENVVTYVSWFQHKPEQSPKLLIYGASNRYTGVPDRFTGSGSATDFTLTISSVQAEDLADYHCGQSYSYPLTFGAGTKLELKR
notes: Mouse IgG purified from hybridoma supernatant by protein G
binding: binds
